These are yes or no findings as the source states them, for the method shown. Binding seen in cells or lysates may run through a third protein. Some binding calls cover weakened binding; strength is not graded here.

Protein sequences, listed by entry. Tags and fused reporters are not part of them. Lines headed by an entry give the natural chain unless they say otherwise; changes in a name come on top. Residues count along the entry.
UniProt P46109, residues 9-108: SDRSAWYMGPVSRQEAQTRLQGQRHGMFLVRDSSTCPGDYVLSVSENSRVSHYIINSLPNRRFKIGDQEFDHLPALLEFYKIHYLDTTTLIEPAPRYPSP
UniProt P46108, residues 1-124: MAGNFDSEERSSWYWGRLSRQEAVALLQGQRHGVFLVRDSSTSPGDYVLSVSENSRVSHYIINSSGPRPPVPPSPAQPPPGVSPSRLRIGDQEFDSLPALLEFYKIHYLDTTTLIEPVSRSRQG
UniProt B7UM99: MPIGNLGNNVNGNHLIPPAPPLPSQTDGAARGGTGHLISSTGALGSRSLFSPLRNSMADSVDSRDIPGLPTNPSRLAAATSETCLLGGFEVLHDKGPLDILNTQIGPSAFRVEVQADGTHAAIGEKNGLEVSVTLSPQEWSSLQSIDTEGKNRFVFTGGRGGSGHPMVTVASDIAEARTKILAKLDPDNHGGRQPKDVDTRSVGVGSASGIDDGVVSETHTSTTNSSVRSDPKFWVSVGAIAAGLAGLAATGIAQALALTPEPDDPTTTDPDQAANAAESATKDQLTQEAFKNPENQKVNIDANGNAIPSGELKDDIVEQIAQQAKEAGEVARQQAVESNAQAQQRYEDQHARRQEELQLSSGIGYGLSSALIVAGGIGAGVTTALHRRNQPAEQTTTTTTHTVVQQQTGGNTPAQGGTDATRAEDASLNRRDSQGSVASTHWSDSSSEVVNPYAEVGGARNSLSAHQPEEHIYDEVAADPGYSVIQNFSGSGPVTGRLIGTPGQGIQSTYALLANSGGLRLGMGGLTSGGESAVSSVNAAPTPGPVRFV

Assay [1] concerns the target GST-tagged SH2 domain of CrkL (residues 9-108) (UniProt P46109). Nature of the assay: pull-down; GST fusion proteins on GSH beads incubated 5 h at 4°C with 150 μl lysate (modified RIPA buffer) of HeLa cells infected with preactivated EPEC (MOI 180, 1 or 2 h; MOI 150, 2 h for Δtir + ptir or ptirY474F); washed four times; WB with anti-Tir and anti-phosphotyrosine antibodies; only the target purified.

For assay [2], the target named is GST-tagged SH2 domain of CrkII (residues 1-124) (UniProt P46108). Described as above.
The target of assay [3] is Tir (translocated intimin receptor) of enteropathogenic Escherichia coli E2348/69, tyrosine-phosphorylated in infected HeLa cells (enteropathogenic Escherichia coli (EPEC) E2348/69) (UniProt B7UM99). Nature of the assay: pull-down; competitive pull-down: increasing amounts of soluble purified CrkII SH2 domain added to lysates of EPEC-infected HeLa cells (2 h, 4°C) before pull-down of Tir with GST-SH2 Nck; binding to Tir read as loss of Tir from the Nck SH2 beads; only the binder purified.

On to “Tir (translocated intimin receptor) of enteropathogenic Escherichia coli E2348/69, tyrosine-phosphorylated in infected HeLa cells (from UniProt B7UM99 1-550)”, for which the binding entry in assay [1] and in assay [2] was “binds” each time.

With “Recombinant soluble CrkII SH2 domain excised from GST-SH2 CrkII with PreScission protease (from UniProt P46108-1 1-124) (domain or fragment)”, the binding entry in assay [3] is reported as “binds”.

The values above are taken from article PMC3968158.
